Test results from paper PMC3828377.
No constants are given. Whether binding was seen depends on the method and setting. In cells and extracts the contact can be indirect. Some binding calls cover weakened binding; strength is not graded here. For some assays here: Sequences can lack the tags named with a protein.

Sequences of proteins named here, by UniProt entry; tags and fusion partners are left off.
UniProt Q09196: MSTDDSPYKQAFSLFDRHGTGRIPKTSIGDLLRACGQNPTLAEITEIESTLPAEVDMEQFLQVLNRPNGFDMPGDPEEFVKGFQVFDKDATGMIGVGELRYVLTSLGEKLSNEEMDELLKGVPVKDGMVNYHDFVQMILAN
UniProt Q9USI6: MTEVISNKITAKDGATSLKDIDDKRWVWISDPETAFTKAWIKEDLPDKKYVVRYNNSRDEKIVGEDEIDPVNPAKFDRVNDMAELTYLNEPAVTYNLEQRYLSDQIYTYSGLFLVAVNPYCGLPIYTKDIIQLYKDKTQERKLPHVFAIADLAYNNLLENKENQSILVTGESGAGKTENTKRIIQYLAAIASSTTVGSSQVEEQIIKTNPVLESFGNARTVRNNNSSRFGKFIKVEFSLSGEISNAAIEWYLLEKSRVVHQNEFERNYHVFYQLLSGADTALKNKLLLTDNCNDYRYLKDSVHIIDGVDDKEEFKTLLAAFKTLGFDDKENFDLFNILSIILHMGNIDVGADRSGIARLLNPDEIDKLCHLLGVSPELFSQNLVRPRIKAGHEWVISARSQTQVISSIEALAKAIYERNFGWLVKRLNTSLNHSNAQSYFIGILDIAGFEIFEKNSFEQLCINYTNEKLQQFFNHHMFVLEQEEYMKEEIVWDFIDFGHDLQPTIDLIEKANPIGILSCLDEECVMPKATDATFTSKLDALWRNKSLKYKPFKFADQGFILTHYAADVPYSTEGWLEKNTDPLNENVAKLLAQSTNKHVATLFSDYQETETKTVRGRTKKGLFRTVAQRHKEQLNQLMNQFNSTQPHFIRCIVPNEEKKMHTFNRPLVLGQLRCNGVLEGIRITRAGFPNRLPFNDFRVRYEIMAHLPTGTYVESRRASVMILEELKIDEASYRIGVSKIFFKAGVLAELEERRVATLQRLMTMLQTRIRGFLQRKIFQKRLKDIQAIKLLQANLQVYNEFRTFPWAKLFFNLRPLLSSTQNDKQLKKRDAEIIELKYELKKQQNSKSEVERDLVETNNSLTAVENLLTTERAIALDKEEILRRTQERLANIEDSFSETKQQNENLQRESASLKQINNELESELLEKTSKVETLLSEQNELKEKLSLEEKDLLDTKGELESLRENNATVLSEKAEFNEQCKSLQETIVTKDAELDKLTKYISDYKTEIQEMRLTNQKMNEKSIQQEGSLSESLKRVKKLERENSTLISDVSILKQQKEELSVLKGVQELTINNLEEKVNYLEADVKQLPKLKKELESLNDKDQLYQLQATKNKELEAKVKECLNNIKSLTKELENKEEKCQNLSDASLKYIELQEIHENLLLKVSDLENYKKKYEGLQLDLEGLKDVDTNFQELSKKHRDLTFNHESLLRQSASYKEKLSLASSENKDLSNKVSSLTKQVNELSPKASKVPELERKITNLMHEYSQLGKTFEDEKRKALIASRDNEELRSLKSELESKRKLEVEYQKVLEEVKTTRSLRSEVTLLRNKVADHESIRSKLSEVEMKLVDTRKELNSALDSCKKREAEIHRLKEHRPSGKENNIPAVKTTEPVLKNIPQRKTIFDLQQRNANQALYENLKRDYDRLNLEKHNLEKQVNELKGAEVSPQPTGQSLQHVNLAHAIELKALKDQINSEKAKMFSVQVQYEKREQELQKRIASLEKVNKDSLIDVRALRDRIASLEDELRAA

Experiments:
[1] = target: GST-tagged Cdc4p (Myo2p light chain) (S. pombe) (UniProt Q09196); assay: pull-down; Myo2p heavy chain and GST-tagged light chains over-expressed together in S. pombe (wild-type or rng3-65 cells, 25°C or 37°C); one-step purification via the GST-tagged light chains; Myo2p heavy chain detected by anti-Myo2p Western blot
[2] = target: T1, GST-tagged Rlc1p (Myo2p light chain) (S. pombe) (UniProt Q9UUG5); assay: as above
T1 sequence: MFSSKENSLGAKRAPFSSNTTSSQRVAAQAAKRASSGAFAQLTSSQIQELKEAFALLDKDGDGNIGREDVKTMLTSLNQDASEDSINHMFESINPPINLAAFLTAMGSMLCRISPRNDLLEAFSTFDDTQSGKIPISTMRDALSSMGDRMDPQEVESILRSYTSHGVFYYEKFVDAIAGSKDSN

binding [1]: binds | binding [2]: binds
Substance: Myo2p heavy chain, full-length (from UniProt Q9USI6 1-1526)
